Data taken from patent US20240415975A1 (ABTIS, published 2024).
Results are given in words; binding and its absence hold for the method and conditions named. Some entries that bind do so weakly or less than the wild type.

The chains behind the UniProt entries cited, without tags or fusion partners. Where a name states a change or a piece, a line headed by the entry shows the natural chain unless it says otherwise. A line that says so, or that is headed by a name, gives the form on record, which may keep a tag or linker.
CLDN18.2 virus-like particle (VLP) in which the claudin 18.2 protein (CLDN18.2) was expressed (P56856, form named): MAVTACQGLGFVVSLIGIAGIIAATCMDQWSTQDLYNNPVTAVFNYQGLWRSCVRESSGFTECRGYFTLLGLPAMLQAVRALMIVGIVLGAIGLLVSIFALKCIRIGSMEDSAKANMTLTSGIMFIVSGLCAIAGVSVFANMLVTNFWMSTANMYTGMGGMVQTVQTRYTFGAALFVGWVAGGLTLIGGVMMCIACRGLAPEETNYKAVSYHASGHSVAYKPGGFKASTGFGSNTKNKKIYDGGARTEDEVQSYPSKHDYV

Assays:
[1] = molecular target: Claudin 18.2 protein (CLDN18.2), expressed on cells (UniProt P56856); assay: cell-based ELISA on MIA PaCa-2-CLDN18.2, SNU601 and PATU8988S cells
[2] = molecular target: Claudin 18.2 protein (CLDN18.2), expressed on cells (UniProt P56856); assay: cell-based ELISA on CLDN18.2-positive cancer cell lines
[3] = molecular target: Claudin 18.2 protein (CLDN18.2), expressed on cells (UniProt P56856); assay: cell-based ELISA on CHO-K1 cells transiently transfected with CLDN18.2
[4] = molecular target: CLDN18.2 virus-like particle (VLP) in which the claudin 18.2 protein (CLDN18.2) was expressed (UniProt P56856); assay: indirect ELISA on plate coated with CLDN18.2 VLP

Measured: binding

B1: anti-Claudin 18.2 antibody (Anti-CLDN18.2 mAb) (antibody-A) (antibody, human IgG1, kappa, V domains shown)
VH: QVQLVESGGGVVQPGRSLRLSCAASGFSLTTYGVHWVRQAPGKGLEWVAVIWAGGSTNYNSALMSRFTISRDNSKNTLYLQMNSLRAEDTAVYYCARAAYYGNGLDYWGQGTMVTVSS
VL: DIVMTQSPLSLPVTPGEPASISCKSSQTLLNSGNQKNYLTWYLQKPGQSPQLLIYWASTGESGVPDRFSGSGSGTDFTLKISRVEAEDVGVYYCQNAYFYPFTFGGGTKVEIKR
notes: two heavy and two light chains; Elsewhere called an IgG1 type anti-CLDN18.2 antibody; Obtained from GenScript ProBio
binds: [1] | [2] | [3] | [4]
